These are yes or no findings as the source states them, for the method shown. A result given as binding can be weak or reduced; the word gives no strength.
Key:
[1] = target: TrwK/VirB4 (plasmid R388); experiment: cryo-EM structure
[2] = target: TrwM/VirB3 (plasmid R388); experiment: cryo-EM structure

| Binder | binding [1] | binding [2] |
| --- | --- | --- |
| TrwG/VirB8 (natural protein, plasmid R388) MSKKQPKPVKAEQLKSYYEESRGLERDLIGEFVKSRKTAWRVATASGLFGLLGMVCGIVGFSQPAPAPLVLRVDNATGAVDVVTTLREHESSYGEVVDTYWLNQYVLNREAYDYNTIQMNYDTTALLSAPAVQQDYYKLFDGSNARDRVLGNKARITVRVRSIQPNGRGQATVRFTTQQHNSNGTVERPQHQIATIGYTYIGAPMRSSDRLLNPLGFQVTSYRADPEILNN | binds | – |
| TrwE/VirB10 (protein, UniProt O50337 1-395) MFGRKKGDVIDAGAELERAEQERIEGEYGASELASERRPHTPGARTLLMVLLCVIAVVLVTLSYKAYKVRGVVEDDDAQPQQVVRQVIPGYTPRPIRPEPENVPEPPQPTTSVPAIQPAPVTQPVRPQPTGPREKTPYELARERMLRSGLTAGSGGGEDLPRPQGGDVPAGGLMGGGGGGGELAEKLQPMRLSGSSAGRLGNRDMLITQGTQLDCVLETRLVTTQPGMTTCHLTRDVYSTSGRVVLLDRGSKVVGFYQGGLRQGQARIFVQWSRIETPSGVVINLDSPGTGPLGEAGLGGWIDRHFWERFGGAIMISLIGDLGDWASRQGSRQGNNSIQFSNTANGVESAAAEALRNSINIPPTLYKNQGERVNILVARDLDFSDVYSLESIPTK | binds | binds |

From doi:10.1101/2024.02.08.579498 (bioRxiv, 2024)
